Measurements published in paper PMC9045202.
Results are given in words; binding and its absence hold for the method and conditions named. Some entries that bind do so weakly or less than the wild type.

Amino acid sequences for entries named in this document (tags omitted). Residues count along the entry.
UniProt P02787, residues 20-698: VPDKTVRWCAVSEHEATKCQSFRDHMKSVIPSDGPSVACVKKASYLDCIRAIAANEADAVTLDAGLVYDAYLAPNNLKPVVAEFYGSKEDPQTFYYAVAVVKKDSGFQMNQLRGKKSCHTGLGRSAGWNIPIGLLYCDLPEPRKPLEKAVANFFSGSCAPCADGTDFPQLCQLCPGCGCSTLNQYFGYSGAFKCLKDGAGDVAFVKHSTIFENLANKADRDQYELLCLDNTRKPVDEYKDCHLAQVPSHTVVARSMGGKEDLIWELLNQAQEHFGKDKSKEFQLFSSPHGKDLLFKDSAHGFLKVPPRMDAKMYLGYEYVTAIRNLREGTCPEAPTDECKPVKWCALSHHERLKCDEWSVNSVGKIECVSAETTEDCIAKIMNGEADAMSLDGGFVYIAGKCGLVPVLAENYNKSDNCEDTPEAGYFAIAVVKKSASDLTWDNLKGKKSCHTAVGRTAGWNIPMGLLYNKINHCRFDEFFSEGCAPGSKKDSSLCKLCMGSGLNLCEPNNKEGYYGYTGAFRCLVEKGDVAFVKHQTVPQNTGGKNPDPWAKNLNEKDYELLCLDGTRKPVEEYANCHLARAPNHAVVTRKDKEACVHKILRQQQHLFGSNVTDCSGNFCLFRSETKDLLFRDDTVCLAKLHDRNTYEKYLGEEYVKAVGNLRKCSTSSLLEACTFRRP

Assays:
[1] = biological target: recombinant EFG with Dm1 deletion (ΔDm1) (Escherichia coli (ExPEC strain RS218)) (UniProt P0A6M8); test: ELISA; rEFG, its deletion proteins or rHis (0, 0.01, 0.1, 0.2, 0.5 μM) immobilised on ELISA plates, blocked with 2% BSA; 0.2 μM bio-TF (or bio-apo-TF) then HRP-streptavidin, 2 h at 4°C; both purified
[2] = biological target: EFG with Dm1 deletion displayed on the surface of E. coli BL21 (BL21-pEImC-ΔDm1) (Escherichia coli (ExPEC strain RS218)) (UniProt P0A6M8); test: bio-TF recovered with bacteria isolated from macrophages, blot with HRP-streptavidin; THP-1 cells infected with BL21 strains with pEImC plasmids, 1 mg bio-TF for 1 h at 4°C then 1 h at 37°C; intracellular bacteria isolated (0.1% SDS lysis, washes, 0.22 μm filter) and blotted; bio-TF band relative to LexA band; only the binder purified
[3] = biological target: EFG with Dm5 deletion displayed on the surface of E. coli BL21 (BL21-pEImC-ΔDm5) (Escherichia coli (ExPEC strain RS218)) (UniProt P0A6M8); test: as above
[4] = biological target: EFG with Dm1 deletion displayed on the surface of E. coli BL21 (BL21-pEImC-ΔDm1) (Escherichia coli (ExPEC strain RS218)) (UniProt P0A6M8); test: fluorescence intensity of labelled ligand bound to bacteria; BL21 strains with pEImC plasmids incubated with 20 μg/mL fluor-TF alone, 1 h at 4°C; fluorescence of 10^7 bacterial cells, excitation 485 nm, emission 535 nm; only the binder purified
[5] = biological target: EFG with Dm5 deletion displayed on the surface of E. coli BL21 (BL21-pEImC-ΔDm5) (Escherichia coli (ExPEC strain RS218)) (UniProt P0A6M8); test: as above

Substance | binding [1] | binding [2] | binding [3] | binding [4] | binding [5]
EZ-Link sulfo-NHS-LC-desthiobiotin-labeled holo-TF (bio-TF) (from UniProt P02787 20-698) | binds | binds | binds |  | 
fluorescein conjugated holo-TF (fluor-TF) (from UniProt P02787 20-698) |  |  |  | binds | binds
